The values that follow come from paper PMC4245943.

Chains of the proteins cited; added tags and fusions are not shown. Lines headed by an entry give the natural chain unless they say otherwise; changes in a name come on top.
UniProt Q96EB6: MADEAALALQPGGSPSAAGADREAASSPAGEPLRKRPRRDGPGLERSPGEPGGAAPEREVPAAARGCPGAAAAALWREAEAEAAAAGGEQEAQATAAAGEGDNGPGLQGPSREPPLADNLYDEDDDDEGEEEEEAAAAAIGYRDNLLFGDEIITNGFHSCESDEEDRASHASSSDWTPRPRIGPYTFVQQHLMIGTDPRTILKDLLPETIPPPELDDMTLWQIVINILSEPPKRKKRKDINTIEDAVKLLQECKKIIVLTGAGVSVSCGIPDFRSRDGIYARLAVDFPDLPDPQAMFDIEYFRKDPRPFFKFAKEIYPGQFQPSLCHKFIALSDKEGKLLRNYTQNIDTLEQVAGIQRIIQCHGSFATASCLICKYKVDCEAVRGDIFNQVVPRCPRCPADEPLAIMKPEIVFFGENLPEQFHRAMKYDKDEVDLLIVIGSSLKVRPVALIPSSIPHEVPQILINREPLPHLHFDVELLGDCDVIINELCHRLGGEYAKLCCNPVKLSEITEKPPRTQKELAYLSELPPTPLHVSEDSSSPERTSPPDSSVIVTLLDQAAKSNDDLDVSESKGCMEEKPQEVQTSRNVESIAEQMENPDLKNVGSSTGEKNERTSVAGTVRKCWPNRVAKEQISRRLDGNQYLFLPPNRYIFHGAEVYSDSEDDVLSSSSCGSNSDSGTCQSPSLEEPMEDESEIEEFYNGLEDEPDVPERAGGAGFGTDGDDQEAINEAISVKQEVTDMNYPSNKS
UniProt Q8N163: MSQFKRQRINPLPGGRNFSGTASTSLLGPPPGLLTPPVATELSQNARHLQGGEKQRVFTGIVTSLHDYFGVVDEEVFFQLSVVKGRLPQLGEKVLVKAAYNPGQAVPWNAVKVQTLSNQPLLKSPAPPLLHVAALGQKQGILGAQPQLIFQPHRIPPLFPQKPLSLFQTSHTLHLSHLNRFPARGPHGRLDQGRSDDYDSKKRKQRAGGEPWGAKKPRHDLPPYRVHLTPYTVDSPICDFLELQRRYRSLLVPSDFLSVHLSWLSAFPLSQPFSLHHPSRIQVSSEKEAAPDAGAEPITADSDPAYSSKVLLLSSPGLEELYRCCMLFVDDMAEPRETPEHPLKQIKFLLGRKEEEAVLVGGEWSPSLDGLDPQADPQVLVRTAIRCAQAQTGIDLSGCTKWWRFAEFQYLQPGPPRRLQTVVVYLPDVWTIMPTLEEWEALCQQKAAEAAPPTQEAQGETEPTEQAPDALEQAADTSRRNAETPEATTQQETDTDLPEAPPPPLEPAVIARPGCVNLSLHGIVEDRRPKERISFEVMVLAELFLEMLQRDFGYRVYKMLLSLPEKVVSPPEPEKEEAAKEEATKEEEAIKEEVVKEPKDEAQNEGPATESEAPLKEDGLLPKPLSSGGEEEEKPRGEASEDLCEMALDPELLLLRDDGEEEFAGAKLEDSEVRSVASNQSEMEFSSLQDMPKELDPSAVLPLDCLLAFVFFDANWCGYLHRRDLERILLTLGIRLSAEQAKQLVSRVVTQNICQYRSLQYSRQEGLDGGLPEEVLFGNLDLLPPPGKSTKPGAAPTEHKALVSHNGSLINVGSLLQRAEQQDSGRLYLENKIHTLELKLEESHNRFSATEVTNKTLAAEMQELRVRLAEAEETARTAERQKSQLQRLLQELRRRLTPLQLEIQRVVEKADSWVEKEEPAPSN
UniProt O96017: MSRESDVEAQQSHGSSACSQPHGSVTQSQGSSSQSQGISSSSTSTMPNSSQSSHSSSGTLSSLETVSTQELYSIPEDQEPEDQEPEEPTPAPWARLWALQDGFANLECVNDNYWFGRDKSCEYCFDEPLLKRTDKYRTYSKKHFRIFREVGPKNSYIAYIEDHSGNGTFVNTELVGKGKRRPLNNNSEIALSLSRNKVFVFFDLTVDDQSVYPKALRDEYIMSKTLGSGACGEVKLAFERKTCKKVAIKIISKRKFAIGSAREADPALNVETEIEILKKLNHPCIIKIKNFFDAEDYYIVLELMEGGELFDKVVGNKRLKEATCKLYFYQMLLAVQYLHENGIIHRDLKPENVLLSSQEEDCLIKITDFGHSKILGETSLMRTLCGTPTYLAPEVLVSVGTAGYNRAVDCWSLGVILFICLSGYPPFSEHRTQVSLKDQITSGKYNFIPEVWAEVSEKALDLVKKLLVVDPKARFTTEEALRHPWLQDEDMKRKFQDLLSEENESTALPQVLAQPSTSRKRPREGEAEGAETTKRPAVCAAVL

Results are given in words; binding and its absence hold for the method and conditions named. In cells and extracts the contact can be indirect. Some entries that bind do so weakly or less than the wild type.

The target in test [1] is SIRT1, endogenous (human (endogenous in U2OS)) (UniProt Q96EB6). The test is described as follows: co-IP; endogenous proteins immunoprecipitated with specific antibodies from lysates in ELB buffer (150 mM NaCl, 50 mM Hepes pH 7.5, 5 mM EDTA, 0.5% NP40) of U2OS cells (SIRT1 IP for Chk2 also from two other cell lines); cells untreated or treated with etoposide or neocarzinostatin, VRX0466617, or siRNA against Chk2, DBC1, SIRT1 or REGγ; western blot. (In general: In western blotting, separated proteins are transferred to a membrane and probed.)

Test [2] has as its target DBC1 (Deleted in Breast Cancer 1), endogenous (human (endogenous in U2OS)) (UniProt Q8N163). Described as above.

As for “Chk2 checkpoint kinase, endogenous (from UniProt O96017 1-543) (enzyme)”, the binding result in test [1] and in test [2] was “binds” throughout.
